# Laboratory results: the supplement of paper PMC8166895
# Where a name gives a salt, the structure may show the parent alone. The list shows a part of the results. Most entries show no effect beyond the scatter of the controls.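 Melting temperature was read by differential scanning fluorimetry in a single-replicate pilot screen of a library of approved drugs and clinical or known-target compounds. Compounds raising the melting point by at least 2 °C were the top stabilizing hits, and negative shifts mean destabilization.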
# Tested on: SARS-CoV-2 main protease (Mpro, nsp5)
# Test: thermal shift ΔTm of Mpro relative to plate average Tm; higher = stronger thermal stabilization of Mpro (binding)
# Details: 10 µM; protein concentration 1 µM
row,SMILES,thermal shift ΔTm of Mpro
1,C[C@@]1(F)[C@H](O)[C@@H](CO)O[C@H]1n1ccc(=O)[nH]c1=O,0.374 °C
2,Cn1cc(-c2ccc3ncc(Cc4ccc5ncccc5c4)n3n2)cn1,-0.0696 °C
3,COc1cc2ncnc(N(C)c3cccc(Br)c3)c2cc1OC,-0.0206 °C
4,CCN(CC)CCOCCO [Diethylaminoethoxyethanol],0.154 °C
5,Cc1cc(NC(=O)Nc2ccc(N(C)C)cc2)c2cc(F)cc(F)c2n1,-0.0543 °C
6,Cc1onc(-c2c(Cl)cccc2Cl)c1C(=O)N[C@@H]1C(=O)N2[C@@H]1SC(C)(C)[C@@H]2C(=O)O [Dicloxacillin Sodium],-0.0877 °C
7,CN(C)/N=N/c1[nH]cnc1C(N)=O [Dacarbazine],0.239 °C
8,CC1C(=O)OC2C(O)C34C5CC(C(C)(C)C)C36C(OC(=O)C6O)OC4(C(=O)O5)C12O (configuration not stated) [Ginkgolide B],0.388 °C
9,COCCCOc1ccnc(CSc2nc3ccccc3[nH]2)c1C [Rabeprazole Related Compound E],0.139 °C
10,O=c1ccc2ccc(OCCCCN3CCN(c4cccc5sccc45)CC3)cc2[nH]1 [Brexpiprazole],0.00226 °C
11,CC1CC(OC(=O)C(O)c2ccccc2)CC(C)(C)C1 (configuration not stated) [Cyclandelate],-0.0869 °C
12,COc1ccc(C(Cl)=C(c2ccc(OC)cc2)c2ccc(OC)cc2)cc1 [Chlorotrianisene],-0.027 °C
13,Cc1oncc1C(=O)Nc1ccc(C(F)(F)F)cc1 [Leflunomide],0.183 °C
14,CCOC(=O)c1c(N)sc2c1CCN(Cc1ccccc1)C2 [Tinoridine hydrochloride],-0.228 °C
15,O=C(O)c1cccnc1Nc1cccc(C(F)(F)F)c1 [Niflumic acid],0.134 °C
16,Cc1cn([C@H]2O[C@@H](CO)[C@H](O)[C@H]2F)c(=O)[nH]c1=O [Clevudine],-0.0873 °C
17,CC(CCc1ccccc1)NCC(O)c1ccc(O)c(C(N)=O)c1 (configuration not stated) [Labetalol HCl],0.045 °C
18,NC1(C(=O)N[C@@H](CCO)c2ccc(Cl)cc2)CCN(c2ncnc3[nH]ccc23)CC1,-0.227 °C
19,CCOC(=O)[C@H](CCc1ccccc1)N[C@@H](C)C(=O)N1Cc2ccccc2C[C@H]1C(=O)O [Quinapril HCl],0.0714 °C

row,SMILES,thermal shift ΔTm of Mpro
1,Cc1cc(C)nc(O)n1.O=C(Nc1ccc([N+](=O)[O-])cc1)Nc1ccc([N+](=O)[O-])cc1 [Nicarbazin],0.154 °C
2,NC(Cc1ccc(Cl)cc1)C(=O)O (configuration not stated) [Fenchlonine],0.228 °C
3,Cc1cc(C(C)(C)C)c(O)c(C)c1CC1=NCCN1 [Oxymetazoline hydrochloride],-0.00545 °C
4,CC(=O)O[C@]1(C(C)=O)CC[C@H]2[C@@H]3C[C@H](C)C4=CC(=O)C=C[C@]4(C)[C@@]3(F)[C@@H](O)C[C@@]21C [Fluorometholone Acetate],-0.121 °C
5,CCCC(CCC)C(=O)NCC(N)=O [Valrocemide],-0.0352 °C
6,Cc1ccc(-c2csc(NC(=O)c3ccccc3)n2)c(C)c1,-0.157 °C
7,Cc1cc2cc(Oc3ccnc(Nc4cccc(CS(=O)(=O)NCCN(C)C)c4)n3)ccc2[nH]1 [Sulfatinib],0.0817 °C
8,COc1ccc([C@@H]2CC(=O)c3c(O)cc(O[C@@H]4O[C@H](CO[C@@H]5O[C@@H](C)[C@H](O)[C@@H](O)[C@H]5O)[C@@H](O)[C@H](O)[C@H]4O)cc3O2)cc1O [Hesperidin],-0.257 °C
9,COc1cc(-n2c(=S)[nH]c3ccccc3c2=O)c(Cl)cc1Cl [Mdivi-1],-0.0233 °C
10,CCCCc1nc(-c2ccc(OCCCN(CC)CC)cc2)cn1-c1ccc(Oc2ccc(Cl)cc2)cc1 [Azeliragon],-0.34 °C
11,CC(C)(C(=O)O)c1ccc(C(O)CCCN2CCC(C(O)(c3ccccc3)c3ccccc3)CC2)cc1 (configuration not stated) [Fexofenadine HCl],-0.0187 °C
12,O=c1cc(N2CCOCC2)oc2c(-c3cccc4c3sc3ccccc34)cccc12,-0.647 °C
13,C[N+]1(C)[C@@H]2CC[C@H]1C[C@@H](OC(=O)C(O)c1ccccc1)C2 (some centres not stated) [Homatropine Methylbromide],-0.0635 °C
14,Cc1ccccc1-c1cc(N2CCN(C)CC2)ncc1N(C)C(=O)C(C)(C)c1cc(C(F)(F)F)cc(C(F)(F)F)c1 [Netupitant],-0.292 °C
15,COC(c1ccccc1)(c1ccccc1)[C@H](Oc1nc(C)cc(C)n1)C(=O)O [Ambrisentan],0.173 °C
16,CC(=O)Nc1ccc(Cc2ccc(NC(C)=O)cc2)cc1,-0.189 °C
17,Cc1noc2c1-c1ccc(-c3cnn(C)c3)cc1C(c1ccc(Cl)cc1)=N[C@H]2CC(N)=O [BET bromodomain inhibitor],0.0284 °C
18,CO/N=C(\C(=O)N[C@@H]1C(=O)N2C(C(=O)[O-])=C(C[n+]3cccc4c3CCCC4)CS[C@H]12)c1csc(N)n1 [Cefquinome sulfate],0.282 °C

# Part of the list above, with tabs.
row	SMILES	thermal shift ΔTm of Mpro
5	CCCC(CCC)C(=O)NCC(N)=O [Valrocemide]	-0.0352 °C
11	CC(C)(C(=O)O)c1ccc(C(O)CCCN2CCC(C(O)(c3ccccc3)c3ccccc3)CC2)cc1 (configuration not stated) [Fexofenadine HCl]	-0.0187 °C
